Data source: PubChem BioAssay AID1259254 (NCATS, 2017)

- Screen: 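Gene knock-downs that lead to re-replication, shown by excess G2 DNA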 (primary screen)
- Cells: human HCT116 colorectal cancer cells
- Reagents: single siRNA against human genes
- Time to read-out: 3 days
- Measured: 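Nuclei stained with Hoechst and imaged; cell-cycle phase assigned by DNA content; G2 share scaled per plate, non-targeting siRNA 0%, GMNN siRNA 100%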
- Scale: G2 robust z-score: higher = more G2 cells, more excess DNA replication
- Rule for the call: 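An siRNA counts as active if its G2 robust z-score lies at least 5 MADs above the screen median; here such calls match roughly 38% of GMNN control or more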
Here is one part, drawn at random, of about 59,000 deposited reagents. About 1,550 of all reagents (2.6%) count as active. 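G2 share is only a proxy for re-replication; each gene was hit by three separate siRNAs, and active genes were retested.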 Reagents against one gene are numbered here. Further read-outs or replicates are left out here. No sequences are given here. Not stated in the record: the amount of reagent.

For GTF2IP20 (GeneID 441124) #1, the entry reads G2 robust z-score -0.554; inactive.
With knock-down of GTF2IP20 (GeneID 441124) #2 the results were G2 robust z-score -0.531; inactive.
GTF2IP20 (GeneID 441124) #3 scored G2 robust z-score 2.24; inactive.
Against TTC28 (GeneID 23331) #1, the entry reads G2 robust z-score 0.254; inactive.
For TTC28 (GeneID 23331) #2, the values are G2 robust z-score -0.143; inactive.
Knock-down of TTC28 (GeneID 23331) #3 came out at: G2 robust z-score -0.998; inactive.
Depletion of CNKSR2 (GeneID 22866) #1 resulted in: G2 robust z-score 0.035; inactive.
Knock-down of CNKSR2 (GeneID 22866) #2 gave: G2 robust z-score -0.2; inactive.
Silencing of CNKSR2 (GeneID 22866) #3 resulted in: G2 robust z-score -1.03; inactive.
Depletion of HES6 (GeneID 55502) #1 gave: G2 robust z-score 0.252; inactive.
For HES6 (GeneID 55502) #2 the deposit lists G2 robust z-score -0.999; inactive.
For HES6 (GeneID 55502) #3, the values are G2 robust z-score -0.951; inactive.
Depletion of MFN2 (GeneID 9927) #1 resulted in: G2 robust z-score -0.493; inactive.
Silencing of MFN2 (GeneID 9927) #2 gave: G2 robust z-score -0.476; inactive.
Silencing of MFN2 (GeneID 9927) #3 gave: G2 robust z-score -0.944; inactive.
Against ABT1 (GeneID 29777) #1, the values are G2 robust z-score 2.92; inactive.
After knock-down of ABT1 (GeneID 29777) #2 the results were G2 robust z-score -0.0401; inactive.
Against ABT1 (GeneID 29777) #3, the values are G2 robust z-score 4.08; inactive.
WHRN (GeneID 25861) #1 scored G2 robust z-score 20.3; active.
After knock-down of WHRN (GeneID 25861) #2, the screen gave G2 robust z-score -0.88; inactive.
WHRN (GeneID 25861) #3 showed G2 robust z-score -0.732; inactive.
For FAM3A (GeneID 60343) #1 the deposit lists G2 robust z-score -0.864; inactive.
FAM3A (GeneID 60343) #2 gave G2 robust z-score -0.161; inactive.
Against FAM3A (GeneID 60343) #3, the values are G2 robust z-score 3.42; inactive.
Against CHPF2 (GeneID 54480) #1, the values are G2 robust z-score -0.899; inactive.
Knock-down of CHPF2 (GeneID 54480) #2 gave: G2 robust z-score -0.388; inactive.
Against CHPF2 (GeneID 54480) #3 the deposit lists G2 robust z-score 0.81; inactive.
ARPC5L (GeneID 81873) #1 gave G2 robust z-score 0.627; inactive.
After knock-down of ARPC5L (GeneID 81873) #2 the results were G2 robust z-score -0.645; inactive.
After knock-down of ARPC5L (GeneID 81873) #3, the record shows G2 robust z-score 1.15; inactive.

3 entries from above, sorted by “G2 robust z-score”, high to low.
CHPF2 (GeneID 54480) #3 → G2 robust z-score: 0.81; call: inactive
ARPC5L (GeneID 81873) #1 → G2 robust z-score: 0.627; call: inactive
ARPC5L (GeneID 81873) #2 → G2 robust z-score: -0.645; call: inactive
